Data as given in PubChem BioAssay AID1053208 (Peter MacCallum Cancer Centre, 2014).
Purpose: 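Genes whose silencing cuts survival of bone tumour cells only with doxorubicin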 (primary screen). Cell system: mouse osteosarcoma cells, early-passage culture from an engineered mouse model of fibroblastic bone tumour. Knock-down reagent: siRNA pool against mouse genes, 40 nM. Duration: about 120 h (48 h before drug, then 72 h with drug). Conditions: doxorubicin 100 nM for 72 h, roughly 30-40% inhibitory dose. Measured: 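Viability read as ATP luminescence after 72 h of 100 nM doxorubicin or none, duplicate wells averaged, scaled to non-targeting siRNA, then expressed as robust z-scores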. Direction: viability z-score with doxorubicin and doxorubicin viability vs non-targeting: higher = more viable cells under doxorubicin; viability z-score without drug: higher = more viable cells with knock-down alone; z-score of drug to no-drug ratio: higher = less drug sensitisation by knock-down. Call rule: 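Called active if knock-down leaves viability unchanged without drug (z within -2 to 2) but lowers it with doxorubicin (z at or under -2)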.
The whole screen tested about 17,000 reagents; shown is a part drawn at random. 788 of them (4.7%) were called active. 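Calls rest on z-score classes alone; an extra cut-off of viability at most 70% of control was not applied to them.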 Unmarked entries are inactive. Reagent sequences are not shown.

no.	gene	PubChem SID	combined z-score class	viability z-score with doxorubicin	viability z-score without drug	z-score of drug to no-drug ratio	doxorubicin viability vs non-targeting
1	Dclre1c (DNA cross-link repair 1C)	SID152315492	no change with or without drug	0.34	0.34	0.22	0.97
2	Sfxn1 (sideroflexin 1)	SID152336497	no change with or without drug	-0.67	-0.51	-0.22	0.88
3	Nts (neurotensin)	SID152329327	no change with or without drug	0.67	-0.34	1.12	1
4	Gpr4 (G protein-coupled receptor 4)	SID193126350	no change with or without drug	0.34	0.17	0.34	0.97
5	Ift57 (intraflagellar transport 57)	SID152342298	no change with or without drug	1.24	1.01	0.67	1.05
6	Kcnip2 (Kv channel-interacting protein 2)	SID152265208	no change with or without drug	-0.9	-0.51	-0.56	0.86
7	Flcn (folliculin)	SID152298197	no change with or without drug	0.9	0.84	0.45	1.02
8	Pcdha9 (protocadherin alpha 9)	SID152300944	low cell count with doxorubicin only (active)	-2.36	-0.51	-2.14	0.73
9	Nrep (neuronal regeneration related protein)	SID152270750	no change with or without drug	1.01	-0.84	1.8	1.03
10	Nras (Nras proto-oncogene, GTPase)	SID152305628	no change with or without drug	0.22	-0.17	0.45	0.96
11	Nags (N-acetylglutamate synthase)	SID152322212	high cell count with doxorubicin only	2.02	1.85	0.9	1.12
12	Atp5po (ATP synthase peripheral stalk subunit OSCP)	SID152319700	no change with or without drug	-0.11	-0.34	0.22	0.93
13	Lamb3 (laminin, beta 3)	SID152337844	no change with or without drug	0	0	0.11	0.94
14	Ifna1 (interferon alpha 1)	SID152284576	high cell count with and without drug	2.92	2.53	1.24	1.2
15	Hkdc1 (hexokinase domain containing 1)	SID152283472	no change with or without drug	0.56	0.51	0.34	0.99
16	Exoc2 (exocyst complex component 2)	SID152334350	high cell count with doxorubicin only	2.25	-0.17	2.59	1.14
17	Chrm2 (cholinergic receptor, muscarinic 2, cardiac)	SID152300198	no change with or without drug	-1.35	0.67	-1.69	0.82
18	Psap (prosaposin)	SID152260332	no change with or without drug	0.45	0.34	0.34	0.98
19	Ctdsp1 (CTD small phosphatase 1)	SID152314413	no change with or without drug	-1.57	-1.01	-0.9	0.8
20	Irf2bpl (interferon regulatory factor 2 binding protein-like)	SID152260516	high cell count without drug only	1.69	2.19	0.34	1.09
21	Adat1 (adenosine deaminase, tRNA-specific 1)	SID152302742	no change with or without drug	0.45	0.84	0	0.98
22	Hnrnpab (heterogeneous nuclear ribonucleoprotein A/B)	SID152304468	no change with or without drug	-0.67	0.17	-0.67	0.88
23	Senp1 (SUMO1/sentrin specific peptidase 1)	SID152307605	no change with or without drug	-0.67	0.34	-0.79	0.88
24	Stard7 (StAR related lipid transfer domain containing 7)	SID152316808	high cell count without drug only	1.12	2.19	-0.22	1.04
25	Tnfrsf14	SID152329813	no change with or without drug	-0.45	0.51	-0.67	0.9
26	Celf1 (CUGBP, Elav-like family member 1)	SID152299101	no change with or without drug	-0.34	0	-0.22	0.91
27	Klrc3 (killer cell lectin-like receptor subfamily C, member 3)	SID152321147	low cell count with doxorubicin only (active)	-2.25	-1.85	-1.12	0.74
28	Zbbx (zinc finger, B-box domain containing)	SID152281484	no change with or without drug	0.67	-0.34	1.12	1
29	Zfp637 (zinc finger protein 637)	SID152273786	low cell count without drug only	-0.79	-2.87	1.57	0.87
30	Dtx4 (deltex 4, E3 ubiquitin ligase)	SID152300058	no change with or without drug	-1.57	-0.34	-1.35	0.8
31	Trem2 (triggering receptor expressed on myeloid cells 2)	SID152287825	no change with or without drug	-0.9	-0.17	-0.79	0.86
32	Txnip (thioredoxin interacting protein)	SID152307412	no change with or without drug	0.45	0.17	0.45	0.98
33	Dapk3 (death-associated protein kinase 3)	SID152340548	no change with or without drug	0.45	-0.17	0.67	0.98
34	Per2 (period circadian clock 2)	SID152270545	no change with or without drug	-1.46	1.52	-2.25	0.81
35	Tnfsf9 (tumor necrosis factor (ligand) superfamily, member 9)	SID152270351	no change with or without drug	-0.45	0.17	-0.45	0.9
36	Vps54 (VPS54 GARP complex subunit)	SID152333174	high cell count with doxorubicin only	2.02	1.85	0.9	1.12
37	Zfp341 (zinc finger protein 341)	SID152282752	no change with or without drug	-0.45	0.84	-0.9	0.9
38	Tnfrsf10b (tumor necrosis factor receptor superfamily, member 10b)	SID152324764	no change with or without drug	-0.45	0.84	-0.9	0.9
39	Zfp946 (zinc finger protein 946)	SID152334730	no change with or without drug	1.01	0.34	0.9	1.03
40	Tuba3a (tubulin, alpha 3A)	SID152321312	no change with or without drug	-1.8	-1.52	-0.79	0.78
41	Pthlh (parathyroid hormone-like peptide)	SID152278845	no change with or without drug	1.12	1.85	0	1.04
42	H2-Eb1 (histocompatibility 2, class II antigen E beta)	SID152297634	no change with or without drug	0	0.17	0	0.94
43	Snx17 (sorting nexin 17)	SID152312479	no change with or without drug	-1.57	-0.51	-1.24	0.8
44	Cnr1 (cannabinoid receptor 1)	SID152333004	no change with or without drug	-0.45	-0.17	-0.22	0.9
45	Igsf1 (immunoglobulin superfamily, member 1)	SID152272370	no change with or without drug	-1.8	0	-1.8	0.78
46	1110059G10Rik (RIKEN cDNA 1110059G10 gene)	SID152277542	no change with or without drug	1.57	1.52	0.67	1.08
47	Stard3 (StAR related lipid transfer domain containing 3)	SID152293342	no change with or without drug	1.12	-1.01	2.14	1.04
48	Zfp952 (zinc finger protein 952)	SID152327453	no change with or without drug	0	-0.51	0.45	0.94
49	Mrgprb2 (MAS-related GPR, member B2)	SID152320980	no change with or without drug	-0.11	0.17	-0.11	0.93
50	Mstn (myostatin)	SID152330279	no change with or without drug	0.67	0.51	0.45	1

3 entries already listed, sorted by “z-score of drug to no-drug ratio”, low to high:
gene	PubChem SID	combined z-score class	viability z-score with doxorubicin	viability z-score without drug	z-score of drug to no-drug ratio	doxorubicin viability vs non-targeting
Trem2 (triggering receptor expressed on myeloid cells 2)	SID152287825	no change with or without drug	-0.9	-0.17	-0.79	0.86
Txnip (thioredoxin interacting protein)	SID152307412	no change with or without drug	0.45	0.17	0.45	0.98
Dapk3 (death-associated protein kinase 3)	SID152340548	no change with or without drug	0.45	-0.17	0.67	0.98
